Laboratory results taken from patent USRE40086E1, “Method for treating bacterial infection with novel 7-substituted-9-substituted amino 6-demethyl-6-deoxytetracyclines” (Wyeth Holdings Corporation, priority 1991, dated 2008).
Counter-ions that a name gives are not always drawn. At least one compound was matched to its structure with a doubt left.

Legend:
Klebsiella pneumoniae = experiment: MIC against clinical isolates (Table V, A and O); format: cell-based; details: (10) tested
Neisseria gonorrhoeae = experiment: MIC against clinical isolates (Table V, A and O); format: cell-based; design: unit not given beside the values; details: (9) tested
[1] = test system: Wild Type S30 extract, E. coli strain MRE600 (tetracycline sensitive); experiment: E. coli in vitro transcription and protein translation, 35S-methionine incorporation (Table VIII)
Providencia spp. = experiment: MIC vs recent clinical and agricultural isolates (Table V, KK); format: cell-based; design: unit not given beside the values; details: [13] tested
Proteus spp. indole+ = experiment: MIC against clinical isolates (Table V, A and O); format: cell-based; design: unit not given beside the values; details: (9) tested
[2] = test system: tetracycline-susceptible E. coli; experiment: Resumption of bacterial growth after washing out the antibiotic (reversibility of binding); format: cell-based; details: 30 minutes at growth inhibitory concentrations, then centrifugation and fresh medium
Procedure: The antibiotics are added to exponentially growing cultures of tetracycline-susceptible E. coli at growth inhibitory concentrations. After 30 minutes, excess antibiotic is removed from the bacteria by centrifugation and the organism is resuspended in fresh growth medium. The ability of bacteria to resume growth is monitored. […] This reflects the different binding characteristics of the drugs.

| Compound | MIC Range (Klebsiella pneumoniae) | MIC Range (Neisseria gonorrhoeae) | % INHIBITION Wild Type S30 ([1]; 0.06 mg/ml) [%] | % INHIBITION Wild Type S30 ([1]; 0.2 mg/ml) [%] | % INHIBITION Wild Type S30 ([1]; 1.0 mg/ml) [%] | MIC (range over isolates) (Providencia spp.) | MIC Range (Proteus spp. indole+) | ability of bacteria to resume growth after excess antibiotic is removed by washing [2] |
| --- | --- | --- | --- | --- | --- | --- | --- | --- |
| CN(C)c1ccc(O)c2c1C[C@H]1C[C@H]3[C@H](N(C)C)C(O)=C(C(N)=O)C(=O)[C@@]3(O)C(O)=C1C2=O [Compound O, 7-(Dimethylamino)-6-demethyl-6-deoxytetracycline hydrochloride (minocycline hydrochloride), reference compound] | 1.00->32.00 | 0.03->32.00 | 78 | 89 | 98 | 4->64 | 1.00->32.00 | – |
| CN(C)[C@@H]1C(O)=C(C(N)=O)C(=O)[C@@]2(O)C(O)=C3C(=O)c4c(O)ccc(Cl)c4[C@@](C)(O)[C@H]3C[C@@H]12 [chlortetracycline] | – | – | – | – | – | – | – | Washing of inhibited cells alleviates growth inhibition |
